# According to PubChem BioAssay AID624415 (National Center for Advancing Translational Sciences (NCATS), 2012):
# Sequences of proteins named here, by UniProt entry; tags and fusion partners are left off.
# UniProt Q9GZU1, whole entry, looked up: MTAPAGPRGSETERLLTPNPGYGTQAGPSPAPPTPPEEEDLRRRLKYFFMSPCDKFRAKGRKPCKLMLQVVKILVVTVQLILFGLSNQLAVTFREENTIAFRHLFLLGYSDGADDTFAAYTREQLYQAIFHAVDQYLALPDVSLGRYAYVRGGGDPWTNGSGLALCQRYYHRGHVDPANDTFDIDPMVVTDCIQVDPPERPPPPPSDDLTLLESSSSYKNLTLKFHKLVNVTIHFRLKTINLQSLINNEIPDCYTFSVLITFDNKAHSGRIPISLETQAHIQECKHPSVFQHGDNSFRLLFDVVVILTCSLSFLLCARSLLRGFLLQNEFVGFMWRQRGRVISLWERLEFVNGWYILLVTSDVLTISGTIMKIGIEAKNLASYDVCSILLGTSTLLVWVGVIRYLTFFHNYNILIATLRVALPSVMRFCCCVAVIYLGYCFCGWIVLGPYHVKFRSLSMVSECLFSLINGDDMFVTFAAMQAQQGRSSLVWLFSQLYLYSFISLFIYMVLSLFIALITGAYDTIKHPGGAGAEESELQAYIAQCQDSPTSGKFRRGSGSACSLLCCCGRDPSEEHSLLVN
# In all, about 390,000 compounds went through this assay and about 60 (0.02%) were called active. The shares of active, inactive and inconclusive entries below differ from those in the screen. Rule as the data show it: active = activity change below about -50%; inconclusive = between about -30% and that limit; inactive = weaker than that.
# Target: Mucolipin-1 (Homo sapiens) (UniProt Q9GZU1)
# Test: qHTS for Inhibitors of the Human Mucolipin Transient Receptor Potential 1 (TRPML1);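 also: stimulus is agonist 54-4 at its EC80 concentration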
# Settings: TRPML1-inducible cells, Ca2+ dye fluorescence, FDSS; active compounds read low; inhibition of EC80 agonist-evoked calcium signal
# Procedure, shortened: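 TRPML1-DL cells, Tet-induced overnight (~16 h, 37 °C) at 1,500 cells/well, were loaded with Ca8 no-wash dye plus quencher for 45-90 min at room temperature. Compounds were pinned during FDSS kinetic reading; agonist 54-4 at EC80 (4 uM final) then added.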
# % is scaled to controls: 0 for no effect and ±100 for the full control effect.
row,Compound,"activity change, negative = inhibition"
1,Cc1c(OCC(=O)N2CCC(C(=O)NCCCC(=O)O)CC2)ccc2c1oc(=O)c1ccccc12,inactive: 21.3%
2,COc1ccc(CN2C(=O)C(CC(=O)NCCN3CCOCC3)CC(C(=O)N(C)C)=C2C)cc1 (stereo not drawn),inconclusive: -35%
3,COc1cc(NC(=O)c2cccc([N+](=O)[O-])c2)ccc1NC(=O)c1cc2ccccc2o1,inconclusive: -38.7%
4,CC1CCC(NC(=O)CCNC(=O)c2ccccc2)CC1 (stereo not drawn),inconclusive: -30.5%
5,COCC(=O)Nc1cc(C)cn(Cc2cccc(C(F)(F)F)c2)c1=O,inconclusive: -45.8%
6,O=C(NC(=S)Nc1ccccc1N1CCCCC1)c1ccc(F)cc1,inconclusive: -30.2%
7,COc1cccc(NC(=O)C2CCCN2C(=O)NC2CCCCC2)c1 (stereo not drawn),inconclusive: -30.4%
8,O=C(COC(=O)c1cc(Cl)ccc1[N+](=O)[O-])NCc1ccc(Cl)cc1Cl,inactive: -17.4%
9,CC1=C(C(=O)Nc2ccc(C)cc2C)C(c2ccccc2)n2nc(SCC(=O)c3ccc(C)cc3)nc2N1 (stereo not drawn),inconclusive: -36.4%
10,Cc1ccc(S(=O)(=O)N2CCC[C@H]2C(=O)OCCN2C(=O)c3ccccc3C2=O)cc1,inactive: 18%
11,Cc1[nH]c2ccccc2c1N=Nc1cccc(C(=O)O)c1,inactive: -0.0641%
12,Cc1cc(C)cc(Nc2cc(=O)n(C3CCCCC3)c(=O)[nH]2)c1,inactive: 7.39%
13,C=CCn1c(COc2cc(C)ccc2C(C)C)nnc1SCC(=O)c1c(N)n(C)c(=O)n(C)c1=O,inconclusive: -40.9%
14,COc1ccc(N2CCN(C(=O)CSc3nnc4c(C)cc5cc(C)ccc5n34)CC2)cc1,inconclusive: -32.1%
15,N#C/C(=N\Nc1cccc(C(F)(F)F)c1)C(=O)c1csc(-c2cccnc2)n1,inconclusive: -36.6%
16,COc1ccc(/C=C2\SC(=S)N(CCCC(=O)Nc3ccccn3)C2=O)cc1OC,inconclusive: -30.5%
17,CCCOc1ccc(C(C)(O)CN2CCOCC2)cc1 (stereo not drawn),inconclusive: -33.5%
18,CC(C)Cc1cc(C(=O)N2CCCC(CCC(=O)N(C)CCc3ccccn3)C2)no1 (stereo not drawn),inconclusive: -36.1%
19,CCOc1ccc(C(=O)Nc2c(C(=O)Nc3ccccc3OC)oc3ccccc23)cc1OCC,inconclusive: -42.5%
20,CCCCOc1ccc(/C(N)=N/O)cc1,inactive: 19%
21,CCS(=O)(=O)N1CCN(c2ccccn2)CC1,inconclusive: -34.4%
22,CN(C)CCCOC(=O)Cc1ccc(Cl)cc1,inactive: -10.2%

row,Compound,"activity change, negative = inhibition"
1,COc1ccccc1C(=O)NNC1=C(C(=O)C(F)(F)F)CCC1,inactive: 6.55%
2,O=C1[C@H]2[C@@H](c3ccc(C(F)(F)F)cc3)N[C@]3(CCCN(CC4CCCCC4)C3=O)[C@H]2C(=O)N1Cc1ccccc1,inconclusive: -35.3%
3,Cc1cc(C(=O)O/N=C(\N)c2ccncc2)ccc1[N+](=O)[O-],inconclusive: -30.3%
4,Cc1ccc(NC(=O)COc2ccc(-n3cnnn3)cc2)cc1C,inconclusive: -38.1%
5,O=C(Oc1ccc2c(c1)OCO2)c1cccs1,active: -50.1%
6,COc1ccc(NC(=O)C2CCCN(S(=O)(=O)c3ccc(F)cc3)C2)cc1 (stereo not drawn),inconclusive: -33.3%
7,Cc1ccc(NC(=O)c2cnc(N3CCCC3)nc2C)cc1F,inconclusive: -30.1%
8,O=C(/C=C/c1ccc(Cl)cc1)NCc1cccs1,inactive: 8.4%
9,CCOC(=O)c1sc(NC(=O)c2c(-c3ccccc3)c(-c3ccccc3)nn(C)c2=O)nc1C,inconclusive: -37.5%
10,SC(COCc1ccccc1)CN1CCN(Cc2ccc3c(c2)OCO3)CC1 (stereo not drawn),inactive: -2.24%
11,CCn1cc(C(=O)NCCCN(C)c2ccccc2)c(=O)c2cc(S(=O)(=O)N(C)C)ccc21,inactive: 26.1%
12,COc1ccc(NC(=O)/C(Cl)=C(/Cl)S(=O)(=O)Cc2ccc(C)cc2)cn1,inactive: 3.48%
13,CC(C)C1=CC(=NS(=O)(=O)c2cccc([N+](=O)[O-])c2)C=C(C(C)C)C1=O,inconclusive: -31%
14,COc1cc(/C=C(/C(=O)c2cccs2)c2nc3ccccc3[nH]2)ccc1O,inactive: 5.03%
15,CCOc1ccc(N/C(C)=C/C(=O)c2ccc3c(c2)OCCO3)cc1,inactive: 5.83%
16,O=C(Nc1ccc2nc(N3CCOCC3)sc2c1)c1cc2ccccc2o1,inconclusive: -36.8%
17,CCOC(=O)Cn1nc(C)c(NC(=O)c2ccc(Cl)c([N+](=O)[O-])c2)c1C,inconclusive: -38.1%
18,Cc1cc(C)c(NC(=O)Nc2ccc3c(c2)OCO3)c(C)c1,inconclusive: -31.9%
19,CCN(CC)C(=O)c1c(-c2ccccc2)c(-c2ccccc2)nn(CC)c1=O,inconclusive: -44.6%
20,CC(=O)N1CC=C2C(C#N)=C(N)C(C#N)(C#N)[C@H](c3ccoc3)[C@H]2C1,inconclusive: -31.2%
21,COCCCNC(=O)c1cn(CC(C)C)c(=O)c2c1c1ccccc1n2C,inconclusive: -33.8%

# By substructure, those above with a COOH group.
row,Compound,"activity change, negative = inhibition"
1,Cc1c(OCC(=O)N2CCC(C(=O)NCCCC(=O)O)CC2)ccc2c1oc(=O)c1ccccc12,inactive: 21.3%
11,Cc1[nH]c2ccccc2c1N=Nc1cccc(C(=O)O)c1,inactive: -0.0641%
